Data reported in doi:10.1101/2024.07.29.605519.
No constants are given. Whether binding was seen depends on the method and setting. Binding seen in cells or lysates may run through a third protein. Some entries that bind do so weakly or less than the wild type. Where a sequence is shown, tags or fusion partners need not be part of it.

Chains of the proteins cited; added tags and fusions are not shown.
UniProt Q39026: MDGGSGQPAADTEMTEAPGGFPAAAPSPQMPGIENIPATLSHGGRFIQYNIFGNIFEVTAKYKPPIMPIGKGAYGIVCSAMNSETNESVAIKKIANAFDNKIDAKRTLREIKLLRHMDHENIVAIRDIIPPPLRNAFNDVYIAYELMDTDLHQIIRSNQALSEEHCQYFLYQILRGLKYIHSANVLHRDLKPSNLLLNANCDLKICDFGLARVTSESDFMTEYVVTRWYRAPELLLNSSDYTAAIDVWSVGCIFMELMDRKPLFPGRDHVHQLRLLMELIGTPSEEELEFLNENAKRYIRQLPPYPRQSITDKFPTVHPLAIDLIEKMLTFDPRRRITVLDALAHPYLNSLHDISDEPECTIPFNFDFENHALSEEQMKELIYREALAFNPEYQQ

Molecular target: T1, SCRM-nYFP (Arabidopsis) (UniProt Q9LSE2)
T1 sequence: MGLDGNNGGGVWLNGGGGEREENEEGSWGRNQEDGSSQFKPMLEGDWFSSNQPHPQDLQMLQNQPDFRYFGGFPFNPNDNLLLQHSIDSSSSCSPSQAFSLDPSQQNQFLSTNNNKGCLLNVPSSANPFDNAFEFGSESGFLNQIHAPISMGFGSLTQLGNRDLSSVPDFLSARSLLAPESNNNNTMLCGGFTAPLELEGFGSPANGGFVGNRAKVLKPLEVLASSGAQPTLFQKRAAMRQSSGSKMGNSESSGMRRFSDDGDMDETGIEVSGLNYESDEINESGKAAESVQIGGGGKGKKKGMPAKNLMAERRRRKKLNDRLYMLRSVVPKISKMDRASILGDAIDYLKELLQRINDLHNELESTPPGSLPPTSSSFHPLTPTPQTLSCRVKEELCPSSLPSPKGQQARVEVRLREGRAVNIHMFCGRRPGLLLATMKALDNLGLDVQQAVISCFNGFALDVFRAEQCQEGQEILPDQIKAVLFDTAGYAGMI
Test: split reporter; ratiometric BiFC (2in1 system, pBiFCt-2in1-CC) in N. benthamiana leaf epidermis; nYFP and cYFP fusions and 35S::RFP on one plasmid; YFP/RFP ratio in nuclei; mock or 100 μM kC9 for two days

Substance: MPK6-cYFP (from UniProt Q39026 1-395)
- binding: binds
